No constants are given. Whether binding was seen depends on the method and setting. Some entries that bind do so weakly or less than the wild type. Tags and fused reporters may be left off the sequences shown.

The target in experiment [1] is MBP-tagged stromal segment of Arabidopsis thaliana STN7 (AA 162-216) (Arabidopsis thaliana) (UniProt Q9S713). Kind of experiment: non-reducing SDS-urea-PAGE (disulfide-linked oligomers); air-oxidized MBP-tagged stromal segment, non-reducing SDS-urea-PAGE, Coomassie stain; higher-order oligomers unchanged by 0.1 mM DTT, gone with Trx-f1 and 0.1 mM DTT; both purified.
Experiment [2] has as its target MBP-tagged lumenal segment of Arabidopsis thaliana STN7 (AA 46-89), wild type (Arabidopsis thaliana) (UniProt Q9S713). Kind of experiment: non-reducing SDS-urea-PAGE (disulfide-linked oligomers); 5 uM desalted MBP-tagged lumenal segment, air-oxidized or with 2 mM diamide or H2O2 for 30 minutes at room temperature, non-reducing 8 % SDS-urea-PAGE; oxidants raise the share of dimers, and higher order oligomers appear for the wild type; both purified.

The target is the same in experiment [3]. Kind of experiment: condition: only after reducing the air-oxidized protein; non-reducing SDS-urea-PAGE (disulfide-linked oligomers); air-oxidized lumenal segment PEGylated with mPEG-MAL (15 uM protein, 25 °C, 1 hour) and then reduced; non-reducing 8 % SDS-urea-PAGE (lane 7, Fig. 1D); both purified.

B1: MBP-tagged stromal segment of Arabidopsis thaliana STN7 (AA 162-216) (domain or fragment, UniProt Q9S713 162-216)
chain: GEYVLKKATEYGAVEIWMNERVRRACGNSCADFVYGFLDKSSKKGPEYWLLWKYE
Turning to B1, the binding result in experiment [1] is “no binding”. On to AQLIDTVHNLFIGVGVGLPCTVMECGDMIYRSTLPKSNGLTITA (domain or fragment, UniProt Q9S713 46-89) [MBP-tagged lumenal segment of Arabidopsis thaliana STN7 (AA 46-89), wild type], for which the binding result in experiment [2] is listed as “binds weakly”; in experiment [3] it was “no binding”.
